Measured values as given in publication PMC4742181.

The chains behind the UniProt entries cited, without tags or fusion partners. Where a name states a change or a piece, a line headed by the entry shows the natural chain unless it says otherwise.
UniProt Q60932: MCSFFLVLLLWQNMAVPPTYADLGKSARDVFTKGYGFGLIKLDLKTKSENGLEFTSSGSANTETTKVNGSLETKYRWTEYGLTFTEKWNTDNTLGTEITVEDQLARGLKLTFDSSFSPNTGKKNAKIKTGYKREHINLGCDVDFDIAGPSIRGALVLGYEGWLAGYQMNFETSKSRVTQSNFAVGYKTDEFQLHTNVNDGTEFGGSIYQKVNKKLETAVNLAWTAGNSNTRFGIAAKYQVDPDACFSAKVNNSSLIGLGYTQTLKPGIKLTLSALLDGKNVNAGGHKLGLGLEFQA

Target: voltage-dependent anion channel 1 (VDAC1) (mouse (endogenous in B16F10 and K1735M2)) (UniProt Q60932)
Assay: co-IP; endogenous proteins; cells lysed in CHAPS buffer (20 mM Tris-HCl pH 7.5, 150 mM NaCl, 1 mM EDTA, 2% CHAPS); antibody on protein A+G Sepharose, 800 μg protein, overnight, 4°C; western blot; B16F10 and K1735M2 cells with or without paclitaxel (100 nM, 24 h); also cells expressing ATF2^T52A, Mcl-1 shRNA, Z-VAD-fmk

B1: NOXA (protein, UniProt Q9JM54 1-103)
chain: MPGRKARRNAPVNPTRAELPPEFAAQLRKIGDKVYCTWSAPDITVVLAQMPGKSQKSRMRSPSPTRVPADLKDECAQLRRIGDKVNLRQKLLNLISKLFNLVT
binding: binds weakly

These are yes or no findings as the source states them, for the method shown. Binding seen in cells or lysates may run through a third protein. Binding calls can cover weak binding; strength is not graded here.
